The experiment concerns the target CD3εγ dimer (UniProt P07766). In words: ELISA, coated soluble protein. For orientation: ELISA stands for enzyme-linked immunosorbent assay.

Sequences of proteins named here, by UniProt entry; tags and fusion partners are left off. A change or cut given only in a name is not applied to a line headed by its entry.
UniProt P07766: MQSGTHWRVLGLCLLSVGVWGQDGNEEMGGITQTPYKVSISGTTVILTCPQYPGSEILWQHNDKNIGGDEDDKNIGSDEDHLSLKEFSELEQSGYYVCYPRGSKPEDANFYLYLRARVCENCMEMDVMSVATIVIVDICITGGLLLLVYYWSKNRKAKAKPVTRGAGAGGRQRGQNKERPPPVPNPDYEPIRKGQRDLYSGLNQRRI

Substitutions are numbered along the chain they refer to. Names may count otherwise. No constants are given. Whether binding was seen depends on the method and setting. Some binding calls cover weakened binding; strength is not graded here.

B1: 40E9-L2H3 (antibody, V domains shown)
VH: EVQLVQSGAEVKKPGSSVKVSCKASGYTFSSYVIHWVRQAPGQCLEWMGYINPYNDVIKYNEKFKGRVTLTSDKSTSTAYMELSSLRSEDTAVYYCARDSYYSYDGFAYWGQGTLVTVSS
VL: EIVLTQSPDFQSVTPKEKVTITCSASSSVSYMHWYQQKPDQSPKRLIYDTSKLASGVPSRFSGSGSGTDFTLTINSLEAEDAATYYCQQWSSNPPTFGCGTKVEIK
Consider B1, for which the binding result was “binds”.

B2: 40E9-L2H3-N55S.H (antibody, V domains shown)
VH: B1 VH with N55S
VL: B1 VL
For B2, the binding result was “binds”.

B3: ch40E9 (antibody, V domains shown)
VH: EVQLQLSGPELVKPGASVKMSCKASGYTFSSYVIHWVKQKPGQGLEWIGYINPYNDVIKYNEKFKGKATLTSDKSSSTAYMELSSLTSEDSAVYYCARDSYYSYDGFAYWGQGTLVTVSA
VL: QIVLTQSPAIMSASPGEKVTMTCSASSSVSYMHWYQQKSGTSPKRWIYDTSKLASGVPARFSGSGSGTSYSLTISSMEAEDAATYYCQQWSSNPPTFGGGTKVEIK
Turning to B3, the binding entry is reported as “binds”.

The values above are taken from patent US20260193348A1.
